Reference: PubChem BioAssay AID1159578 (Peter MacCallum Cancer Centre, 2015)
The deposit covers about 18,000 reagents; this is a part drawn at random. About 1,030 of them (5.7%) count as active. 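Inactive calls also include pools with fewer than 3300 nuclei, whose migration was not assessed.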 Raw values vary from plate to plate and are shown uncorrected. Reagent sequences are not shown.

- Test: 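Knock-downs that alter how fast lymphatic endothelial cells migrate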 (primary screen)
- Cells: human lymphatic endothelial cells
- Reagents: siRNA pool against human genes, 40 nM
- Timing: 48 h after transfection
- Measurement: 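High-content imaging of dye-stained cells in a scratch assay measures filled wound area and nuclei per well; duplicate means given as ratio to mock and robust z-score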
- Reading the numbers: migration robust z-score: higher = faster migration into the scratch; migration relative to mock: higher = more scratch area covered than mock; nuclei per well: higher = more cells in the well
- Hit rule: 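Pools averaging fewer than 3300 nuclei are never called; remaining pools count as changed when migration robust z lies outside -2 to 2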
- Meaning of the calls: active = migration changed; inactive = no migration change, or too few cells

no.	Target gene	migration robust z-score	migration class with cell-count check	migration relative to mock	nuclei per well, duplicate mean	outcome
1	CDY1B (GeneID 253175)	-0.26	migration z between -2 and 2; enough cells	0.82	5504	inactive
2	PIH1D1 (GeneID 55011)	-0.11	migration z between -2 and 2; enough cells	0.86	6072	inactive
3	ELF3 (GeneID 1999)	0.36	migration z between -2 and 2; enough cells	0.88	4188	inactive
4	MIR9-1HG (GeneID 10485)	-0.03	migration z between -2 and 2; enough cells	0.88	4654	inactive
5	SERF1A (GeneID 8293)	-1.38	migration z between -2 and 2; enough cells	0.53	5820	inactive
6	OR13C3 (GeneID 138803)	-0.68	migration z between -2 and 2; enough cells	0.71	5998	inactive
7	OTUB2 (GeneID 78990)	-1.86	migration z between -2 and 2; enough cells	0.4	3474	inactive
8	MIMS1 (GeneID 125228)	0.94	migration z between -2 and 2; enough cells	1.13	5541	inactive
9	C11orf40 (GeneID 143501)	1.53	migration z between -2 and 2; enough cells	1.28	7022	inactive
10	SDSL (GeneID 113675)	-1.09	migration z between -2 and 2; enough cells	0.6	4850	inactive
11	SPIN4 (GeneID 139886)	-0.11	migration z between -2 and 2; enough cells	0.86	6133	inactive
12	ZNF202 (GeneID 7753)	-0.01	migration z between -2 and 2; enough cells	0.88	5146	inactive
13	NOC3L (GeneID 64318)	2.48	migration z above 2; enough cells	1.53	6205	active
14	ZPBP2 (GeneID 124626)	-0.25	migration z between -2 and 2; enough cells	0.82	5294	inactive
15	TMEM108 (GeneID 66000)	1.25	migration z between -2 and 2; enough cells	1.21	4678	inactive
16	FMNL1 (GeneID 752)	0.42	migration z between -2 and 2; enough cells	1	5768	inactive
17	LOXL4 (GeneID 84171)	0.24	migration z between -2 and 2; enough cells	0.85	6742	inactive
18	GPX1 (GeneID 2876)	-0.9	migration z between -2 and 2; enough cells	0.65	4741	inactive
19	WWTR1 (GeneID 25937)	-0.2	migration z between -2 and 2; enough cells	0.84	5748	inactive
20	MYO7A (GeneID 4647)	0.91	migration z between -2 and 2; enough cells	0.98	5376	inactive
21	RAMAC (GeneID 83640)	0.38	migration z between -2 and 2; enough cells	0.98	6859	inactive
22	BAG3 (GeneID 9531)	0.98	migration z between -2 and 2; enough cells	1	5876	inactive
23	GPR68 (GeneID 8111)	0.54	migration z between -2 and 2; enough cells	0.91	4243	inactive
24	SLC33A1 (GeneID 9197)	0.46	migration z between -2 and 2; enough cells	0.9	3912	inactive
25	WDR81 (GeneID 124997)	0.11	migration z between -2 and 2; enough cells	0.92	6648	inactive
26	PPEF1 (GeneID 5475)	-0.73	migration z between -2 and 2; enough cells	0.66	4683	inactive
27	PCDH17 (GeneID 27253)	1.06	migration z between -2 and 2; enough cells	1.17	6380	inactive
28	CNTN3 (GeneID 5067)	0.48	migration z between -2 and 2; enough cells	1.01	6152	inactive
29	CALHM5 (GeneID 254228)	1.59	migration z between -2 and 2; enough cells	1.29	5346	inactive
30	CNTD1 (GeneID 124817)	-1.94	migration z between -2 and 2; enough cells	0.38	5598	inactive
31	IL5 (GeneID 3567)	0.13	migration z between -2 and 2; enough cells	0.83	6554	inactive
32	TCN1 (GeneID 6947)	-0.55	migration z between -2 and 2; enough cells	0.74	4055	inactive
33	NEK9 (GeneID 91754)	-2.08	under 3300 nuclei; migration not judged	0.4	2604	inactive
34	ODF2L (GeneID 57489)	-0.36	migration z between -2 and 2; enough cells	0.79	6468	inactive
35	RAB19 (GeneID 401409)	-1.25	migration z between -2 and 2; enough cells	0.56	5356	inactive
36	SERPINB5 (GeneID 5268)	0.94	migration z between -2 and 2; enough cells	0.98	6063	inactive
37	EEF1AKMT3 (GeneID 25895)	1.99	migration z between -2 and 2; enough cells	1.4	5074	inactive
38	NABP2 (GeneID 79035)	-0.76	migration z between -2 and 2; enough cells	0.69	6436	inactive
39	RACK1 (GeneID 10399)	-1.06	migration z between -2 and 2; enough cells	0.6	6824	inactive
40	SYK (GeneID 6850)	-1.97	migration z between -2 and 2; enough cells	0.42	3571	inactive
41	PDCD7 (GeneID 10081)	-1.66	under 3300 nuclei; migration not judged	0.45	3096	inactive
42	SEC23A (GeneID 10484)	-0.25	migration z between -2 and 2; enough cells	0.82	4988	inactive
43	TNFRSF1A (GeneID 7132)	0.99	migration z between -2 and 2; enough cells	1	5316	inactive
44	ZNF763 (GeneID 284390)	-1.52	migration z between -2 and 2; enough cells	0.49	5653	inactive
45	EMCN (GeneID 51705)	0.24	migration z between -2 and 2; enough cells	0.95	6671	inactive
46	APCS (GeneID 325)	0.16	migration z between -2 and 2; enough cells	0.92	5970	inactive
47	FBXO44 (GeneID 93611)	-2.39	migration z below -2; enough cells	0.35	5724	active
48	OR11H4 (GeneID 390442)	1.14	migration z between -2 and 2; enough cells	1.02	5138	inactive
49	RHPN2 (GeneID 85415)	-0.32	migration z between -2 and 2; enough cells	0.8	5683	inactive
50	TXNDC17 (GeneID 84817)	1.06	migration z between -2 and 2; enough cells	1.01	6738	inactive
51	DEK (GeneID 7913)	0.7	migration z between -2 and 2; enough cells	0.94	5010	inactive
52	IGSF3 (GeneID 3321)	1.01	migration z between -2 and 2; enough cells	1.15	6076	inactive
53	TFAP2E (GeneID 339488)	-1.92	migration z between -2 and 2; enough cells	0.39	5644	inactive
54	THAP9 (GeneID 79725)	0.64	migration z between -2 and 2; enough cells	1.05	6308	inactive
55	MAT2B (GeneID 27430)	0.42	migration z between -2 and 2; enough cells	0.88	6612	inactive
56	MELK (GeneID 9833)	1.12	migration z between -2 and 2; enough cells	1.02	5929	inactive
57	FAT1 (GeneID 2195)	-0.32	migration z between -2 and 2; enough cells	0.8	6149	inactive

Called active, of those listed so far:
Target gene	migration robust z-score	migration class with cell-count check	migration relative to mock	nuclei per well, duplicate mean	outcome
NOC3L (GeneID 64318)	2.48	migration z above 2; enough cells	1.53	6205	active
FBXO44 (GeneID 93611)	-2.39	migration z below -2; enough cells	0.35	5724	active
